Experimental data reported in patent US20090181975A1, “NEBIVOLOL IN THE TREATMENT OF SEXUAL DYSFUNCTION” (FOREST LABORATORIES HOLDINGS LIMITED, priority 2008, published 2009).

Test system: diabetic rats
Test: Glycemia, arterial pressure and heart rate in STZ-diabetic rats after 10 days s.c. treatment
Assay type: in vivo, rat (Sprague-Dawley)
Conditions: 3 or 10 mg/kg/day s.c. for 10 days
Experimental: Male Sprague-Dawley rats were used as a model for this study. Diabetes was induced by a single injection of streptozotocin (STZ, 60 mg/kg; i.p.) dissolved in 0.1 M citric acid/trisodic citrate buffer (pH 4-4.5) and was assessed by glycemia determination 72 h after induction. Animals were kept, with free access to food and water, for 8 weeks before experimental assays. Eight weeks after induction of diabetes, rats show reduced erectile responses (Angulo et al., Naunyn-Schmiedeberg's Arch Pharmacol, 358(5), 529-37, 1998; Angulo et al., J. Sex Med., 2, 341-346, 2005). Blood glucose concentration was determined each week and just before the experiment. Insulin levels were not determined. […] After this period of treatment, the diabetic rats were anesthetized and ICP responses to electrical stimulation were evaluated. After an equilibration period, the PDE5 inhibitor sildenafil (0.3 mg/kg) or the vehicle (25% glycofurol) was intravenously administered. Forty five minutes later, ICP responses were again determined

SMILES	effect on blood glucose concentrations in diabetic rats
OC(CNCC(O)C1CCc2cc(F)ccc2O1)C1CCc2cc(F)ccc2O1 (racemic) [nebivolol, α,α′-iminobis(methylene)bis[6-fluoro-2-chromanmethanol]]	did not significantly alter
CC(C)NCC(O)COc1ccc(CC(N)=O)cc1 (centres unmarked) [atenolol]	did not significantly alter
